Source: article doi:10.1101/2024.11.12.621593
Like-named read-outs stand apart in the source and are kept apart here. Results are given in words; binding and its absence hold for the method and conditions named. Binding seen in cells or lysates may run through a third protein. Here binding means that the protein was enriched with, or labelled near, the bait; the list need not be complete.

Chains of the proteins cited; added tags and fusions are not shown.
UniProt Q92547: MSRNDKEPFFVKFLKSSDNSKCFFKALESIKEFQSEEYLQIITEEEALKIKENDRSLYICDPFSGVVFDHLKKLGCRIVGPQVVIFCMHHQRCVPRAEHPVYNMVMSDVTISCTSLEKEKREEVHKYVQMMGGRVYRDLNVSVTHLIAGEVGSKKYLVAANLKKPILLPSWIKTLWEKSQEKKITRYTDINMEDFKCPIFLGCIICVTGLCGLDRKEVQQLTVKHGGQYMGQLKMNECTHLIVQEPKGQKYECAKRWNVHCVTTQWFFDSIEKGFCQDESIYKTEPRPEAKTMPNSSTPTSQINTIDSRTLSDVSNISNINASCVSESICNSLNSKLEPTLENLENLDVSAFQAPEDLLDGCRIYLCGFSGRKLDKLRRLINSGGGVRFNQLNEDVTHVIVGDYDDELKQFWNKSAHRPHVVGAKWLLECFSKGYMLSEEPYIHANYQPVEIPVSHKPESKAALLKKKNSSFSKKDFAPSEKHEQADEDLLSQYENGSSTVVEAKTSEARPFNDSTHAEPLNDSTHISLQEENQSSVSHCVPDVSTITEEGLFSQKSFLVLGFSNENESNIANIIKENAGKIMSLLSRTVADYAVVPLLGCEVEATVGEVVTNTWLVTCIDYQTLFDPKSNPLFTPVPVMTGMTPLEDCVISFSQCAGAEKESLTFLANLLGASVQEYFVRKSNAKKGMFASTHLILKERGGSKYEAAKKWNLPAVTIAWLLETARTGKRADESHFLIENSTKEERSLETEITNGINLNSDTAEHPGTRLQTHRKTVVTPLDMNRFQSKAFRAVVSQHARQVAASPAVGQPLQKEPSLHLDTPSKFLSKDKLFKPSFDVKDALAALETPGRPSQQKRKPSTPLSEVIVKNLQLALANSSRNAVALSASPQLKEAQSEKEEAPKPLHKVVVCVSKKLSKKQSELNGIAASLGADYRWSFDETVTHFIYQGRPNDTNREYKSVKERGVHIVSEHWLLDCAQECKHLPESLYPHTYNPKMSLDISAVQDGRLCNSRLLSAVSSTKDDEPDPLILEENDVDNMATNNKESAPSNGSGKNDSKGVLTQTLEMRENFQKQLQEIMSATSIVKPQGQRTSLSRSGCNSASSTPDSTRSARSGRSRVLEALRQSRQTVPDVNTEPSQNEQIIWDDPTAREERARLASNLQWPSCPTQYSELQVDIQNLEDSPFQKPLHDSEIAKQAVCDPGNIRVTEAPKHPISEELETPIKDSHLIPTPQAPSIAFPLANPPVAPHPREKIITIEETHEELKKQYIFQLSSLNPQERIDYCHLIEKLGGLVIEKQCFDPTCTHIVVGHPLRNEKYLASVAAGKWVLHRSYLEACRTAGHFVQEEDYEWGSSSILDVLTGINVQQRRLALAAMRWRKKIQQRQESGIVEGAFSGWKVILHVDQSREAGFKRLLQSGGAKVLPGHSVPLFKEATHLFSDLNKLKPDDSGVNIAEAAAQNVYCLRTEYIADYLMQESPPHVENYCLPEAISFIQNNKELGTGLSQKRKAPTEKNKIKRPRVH

Columns and labels:
[1] = target: TOPBP1 (endogenous) (human (endogenous in HEK293TN)) (UniProt Q92547); experiment: affinity purification with mass spectrometry
[2] = target: TOPBP1 (endogenous) (human (endogenous in HEK293TN)) (UniProt Q92547); experiment: affinity purification with mass spectrometry; remark: listed apart in the source

Binder | binding [1] | binding [2]
ERCC1 (endogenous) (protein, UniProt P07992 1-297) MDPGKDKEGVPQPSGPPARKKFVIPLDEDEVPPGVAKPLFRSTQSLPTVDTSAQAAPQTYAEYAISQPLEGAGATCPTGSEPLAGETPNQALKPGAKSNSIIVSPRQRGNPVLKFVRNVPWEFGDVIPDYVLGQSTCALFLSLRYHNLHPDYIHGRLQSLGKNFALRVLLVQVDVKDPQQALKELAKMCILADCTLILAWSPEEAGRYLETYKAYEQKPADLLMEKLEQDFVSRVTECLTTVKSVNKTDSQTLLTTFGSLEQLIAASREDLALCPGLGPQKARRLFDVLHEPFLKVP | binds | –
MUS81 (endogenous) (protein, UniProt Q96NY9 1-551) MAAPVRLGRKRPLPACPNPLFVRWLTEWRDEATRSRRRTRFVFQKALRSLRRYPLPLRSGKEAKILQHFGDGLCRMLDERLQRHRTSGGDHAPDSPSGENSPAPQGRLAEVQDSSMPVPAQPKAGGSGSYWPARHSGARVILLVLYREHLNPNGHHFLTKEELLQRCAQKSPRVAPGSARPWPALRSLLHRNLVLRTHQPARYSLTPEGLELAQKLAESEGLSLLNVGIGPKEPPGEETAVPGAASAELASEAGVQQQPLELRPGEYRVLLCVDIGETRGGGHRPELLRELQRLHVTHTVRKLHVGDFVWVAQETNPRDPANPGELVLDHIVERKRLDDLCSSIIDGRFREQKFRLKRCGLERRVYLVEEHGSVHNLSLPESTLLQAVTNTQVIDGFFVKRTADIKESAAYLALLTRGLQRLYQGHTLRSRPWGTPGNPESGAMTSPNPLCSLLTFSDFNAGAIKNKAQSVREVFARQLMQVRGVSGEKAAALVDRYSTPASLLAAYDACATPKEQETLLSTIKCGRLQRNLGPALSRTLSQLYCSYGPLT | binds | –
ERCC4/XPF (endogenous) (protein, UniProt Q92889 1-916) MESGQPARRIAMAPLLEYERQLVLELLDTDGLVVCARGLGADRLLYHFLQLHCHPACLVLVLNTQPAEEEYFINQLKIEGVEHLPRRVTNEITSNSRYEVYTQGGVIFATSRILVVDFLTDRIPSDLITGILVYRAHRIIESCQEAFILRLFRQKNKRGFIKAFTDNAVAFDTGFCHVERVMRNLFVRKLYLWPRFHVAVNSFLEQHKPEVVEIHVSMTPTMLAIQTAILDILNACLKELKCHNPSLEVEDLSLENAIGKPFDKTIRHYLDPLWHQLGAKTKSLVQDLKILRTLLQYLSQYDCVTFLNLLESLRATEKAFGQNSGWLFLDSSTSMFINARARVYHLPDAKMSKKEKISEKMEIKEGEETKKELVLESNPKWEALTEVLKEIEAENKESEALGGPGQVLICASDDRTCSQLRDYITLGAEAFLLRLYRKTFEKDSKAEEVWMKFRKEDSSKRIRKSHKRPKDPQNKERASTKERTLKKKKRKLTLTQMVGKPEELEEEGDVEEGYRREISSSPESCPEEIKHEEFDVNLSSDAAFGILKEPLTIIHPLLGCSDPYALTRVLHEVEPRYVVLYDAELTFVRQLEIYRASRPGKPLRVYFLIYGGSTEEQRYLTALRKEKEAFEKLIREKASMVVPEEREGRDETNLDLVRGTASADVSTDTRKAGGQEQNGTQQSIVVDMREFRSELPSLIHRRGIDIEPVTLEVGDYILTPEMCVERKSISDLIGSLNNGRLYSQCISMSRYYKRPVLLIEFDPSKPFSLTSRGALFQEISSNDISSKLTLLTLHFPRLRILWCPSPHATAELFEELKQSKPQPDAATALAITADSETLPESEKYNPGPQDFLLKMPGVNAKNCRSLMHHVKNIAELAALSQDELTSILGNAANAKQLYDFIHTSFAEVVSKGKGKK | binds | binds
EME1 (endogenous) (protein, UniProt Q96AY2 1-570) MALKKSSPSLDSGDSDSEELPTFAFLKKEPSSTKRRQPEREEKIVVVDISDCEASCPPAPELFSPPVPEIAETVTQTQPVRLLSSESEDEEEFIPLAQRLTCKFLTHKQLSPEDSSSPVKSVLDHQNNEGASCDWKKPFPKIPEVPLHDTPERSAADNKDLILDPCCQLPAYLSTCPGQSSSLAVTKTNSDILPPQKKTKPSQKVQGRGSHGCRQQRQARQKESTLRRQERKNAALVTRMKAQRPEECLKHIIVVLDPVLLQMEGGGQLLGALQTMECRCVIEAQAVPCSVTWRRRAGPSEDREDWVEEPTVLVLLRAEAFVSMIDNGKQGSLDSTMKGKETLQGFVTDITAKTAGKALSLVIVDQEKCFSAQNPPRRGKQGANKQTKKQQQRQPEASIGSMVSRVDAEEALVDLQLHTEAQAQIVQSWKELADFTCAFTKAVAEAPFKKLRDETTFSFCLESDWAGGVKVDLAGRGLALVWRRQIQQLNRVSLEMASAVVNAYPSPQLLVQAYQQCFSDKERQNLLADIQVRRGEGVTSTSRRIGPELSRRIYLQMTTLQPHLSLDSAD | binds | binds
